Drawing on publication PMC7862700, this text covers binding signal for 38 sequences.

The chains behind the UniProt entries cited, without tags or fusion partners. Where a name states a change or a piece, a line headed by the entry shows the natural chain unless it says otherwise.
UniProt O43186: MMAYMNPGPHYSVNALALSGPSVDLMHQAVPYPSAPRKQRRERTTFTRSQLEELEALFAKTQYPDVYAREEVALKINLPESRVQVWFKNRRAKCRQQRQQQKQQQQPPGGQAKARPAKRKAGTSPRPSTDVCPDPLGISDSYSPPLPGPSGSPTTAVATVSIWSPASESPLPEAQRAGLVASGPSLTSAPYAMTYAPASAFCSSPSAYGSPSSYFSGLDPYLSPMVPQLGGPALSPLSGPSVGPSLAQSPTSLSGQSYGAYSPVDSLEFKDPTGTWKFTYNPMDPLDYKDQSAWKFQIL

This is a selection; strong and weak results do not stand in their true shares. At the low end of the ranking the order means little.

In the first test the target is T1, FEV (UniProt Q99581).
T1 sequence: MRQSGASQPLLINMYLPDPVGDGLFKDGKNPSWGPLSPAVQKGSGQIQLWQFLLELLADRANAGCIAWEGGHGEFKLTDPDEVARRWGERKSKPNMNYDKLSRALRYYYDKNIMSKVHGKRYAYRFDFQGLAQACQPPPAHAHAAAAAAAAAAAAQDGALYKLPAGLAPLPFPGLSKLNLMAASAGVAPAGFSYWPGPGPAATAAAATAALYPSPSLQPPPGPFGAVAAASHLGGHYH
Nature of the test: DAPPL (digital affinity profiling via proximity ligation, sequencing). Conditions: 10 mM Tris-HCl pH 7.5, 50 mM NaCl, 1 mM DTT, 4% glycerol, room temperature, 30 min; GST-TFs on glutathione beads, 16-mer random dsDNA library, 0.1% …; high values mean tight binding; double strand, one strand shown; scale: fold enrichment (6-mer frequency, TF over GST control).
As for AAGAGA, the binding signal was 0.844.
CGGAGA gave a binding signal of 0.187.
On the same count and under the same terms, for GGCGCG the value was 0.632; for AACAGT, 0.614; for CAAGGG, 0.92.
AGCCGC returned a binding signal of 0.873.
Still for that read-out and setting: for GGCGGT the value was 0.395; for GAGCTG, 0.72; for ACGGTC, 0.681.
On the same count and under the same terms, in the case of AGGTGC it was 0.586; in that of CGTTGA, 0.814; in that of GGGAAG, 0.752.
On the same count and under the same terms, in the case of TTGAGT it was 0.656; in that of GCATCG, 0.78; in that of GGGTAA, 0.83.
In the case of GGCCGC, the binding signal was 0.815.
Still for that read-out and setting: for CACCGT the value was 0.633; for CGTGTC, 0.765.
Still for that read-out and setting: in the case of TGTGGG it was 0.755.
GACTAA had a binding signal of 0.886.
Still for that read-out and setting: for GGTGAG the value was 0.347; for AGCGTT, 0.883.
On to GAGATC, for which the binding signal is 0.443.
On the same count and under the same terms, for GTTGGA the value was 0.485.
The same measure, in the same setting: in the case of GAATCG it was 0.585.
Sequence CGTGCG returned a binding signal of 0.678.
In turn, AGCGCA came in with a binding signal of 0.948.
Consider GATCAG, for which the binding signal came to 0.724.
Sequence TATCGG registered a binding signal of 0.836.
The sequence GCGCTG yielded a binding signal of 0.816.
The same measure, in the same setting: for CGTGCT the value was 0.772; for TAGAGG, 0.8.
The same measure, in the same setting: in the case of AGACGC it was 0.705; in that of GGGGTG, 0.62; in that of TCGTAG, 0.83.
Still for that read-out and setting: for GTACGG the value was 0.849; for GGGTCT, 0.907.
In the case of CGCGTG, the binding signal amounted to 0.652.

The target in a further test is CRX (UniProt O43186). The test is described as above. Particulars: 10 mM Tris-HCl pH 7.5, 50 mM NaCl, 1 mM DTT, 4% glycerol, room temperature, 30 min; GST-TFs on glutathione beads, 16-mer random dsDNA library, 0.1% …; high values mean tight binding; double strand, one strand shown; scale: fold enrichment (6-mer frequency, TF over GST control).
The sequence AAGAGA gave a binding signal of 0.943.
On the same count and under the same terms, in the case of CGGAGA it was 0.194; in that of GGCGCG, 0.491; in that of AACAGT, 0.598.
Same read-out and setting: in the case of CAAGGG it was 0.762.
On the same count and under the same terms, in the case of AGCCGC it was 0.974; in that of GGCGGT, 0.286; in that of GAGCTG, 0.717.
As for ACGGTC, the binding signal worked out at 0.562.
The same measure, in the same setting: in the case of AGGTGC it was 0.528; in that of CGTTGA, 0.665; in that of GGGAAG, 0.498.
Same read-out and setting: for TTGAGT the value was 0.719; for GCATCG, 0.659.
The same measure, in the same setting: in the case of GGGTAA it was 0.913; in that of GGCCGC, 0.565; in that of CACCGT, 0.494.
For the sequence CGTGTC, the binding signal worked out at 0.551.
Same read-out and setting: for TGTGGG the value was 0.725.
Same read-out and setting: in the case of GACTAA it was 1.44; in that of GGTGAG, 0.284.
The same measure, in the same setting: for AGCGTT the value was 0.9; for GAGATC, 0.544; for GTTGGA, 0.386.
GAATCG yielded a binding signal of 0.592.
On the same count and under the same terms, for CGTGCG the value was 0.49; for AGCGCA, 0.853.
Consider GATCAG, for which the binding signal came out at 1.08.
Consider TATCGG, for which the binding signal turned out to be 1.1.
In turn, GCGCTG registered a binding signal of 0.676.
The sequence CGTGCT displayed a binding signal of 0.662.
In turn, TAGAGG showed a binding signal of 1.02.
The same measure, in the same setting: for AGACGC the value was 0.597.
As for GGGGTG, the binding signal was found to be 0.476.
On the same count and under the same terms, in the case of TCGTAG it was 0.766; in that of GTACGG, 0.602.
Same read-out and setting: in the case of GGGTCT it was 0.83.
Still for that read-out and setting: for CGCGTG the value was 0.507.

A further test has as its target T2, ELF5 (UniProt Q9UKW6-2).
T2 sequence: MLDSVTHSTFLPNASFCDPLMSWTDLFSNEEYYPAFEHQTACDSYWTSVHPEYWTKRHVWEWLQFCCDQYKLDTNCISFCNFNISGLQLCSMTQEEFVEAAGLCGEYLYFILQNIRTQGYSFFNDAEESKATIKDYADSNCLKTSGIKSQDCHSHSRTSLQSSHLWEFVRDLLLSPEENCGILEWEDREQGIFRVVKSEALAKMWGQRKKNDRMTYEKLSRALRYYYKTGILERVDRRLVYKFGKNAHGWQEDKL
The test is described as above. Particulars: 10 mM Tris-HCl pH 7.5, 50 mM NaCl, 1 mM DTT, 4% glycerol, room temperature, 30 min; GST-TFs on glutathione beads, 16-mer random dsDNA library, 0.1% …; high values mean tight binding; double strand, one strand shown; scale: fold enrichment (6-mer frequency, TF over GST control).
In turn, AAGAGA came in with a binding signal of 0.823.
The sequence CGGAGA gave a binding signal of 0.193.
The same measure, in the same setting: in the case of GGCGCG it was 0.576; in that of AACAGT, 0.635.
Same read-out and setting: for CAAGGG the value was 0.844.
Still for that read-out and setting: in the case of AGCCGC it was 0.813; in that of GGCGGT, 0.399.
In turn, GAGCTG yielded a binding signal of 0.671.
As for ACGGTC, the binding signal is 0.717.
Take AGGTGC: the binding signal came to 0.632.
For CGTTGA, the binding signal is 0.762.
The same measure, in the same setting: for GGGAAG the value was 1.24; for TTGAGT, 0.631.
As for GCATCG, the binding signal stood at 0.726.
GGGTAA yielded a binding signal of 0.915.
GGCCGC had a binding signal of 0.738.
On to CACCGT, for which the binding signal came out at 0.594.
Same read-out and setting: for CGTGTC the value was 0.814.
Still for that read-out and setting: for TGTGGG the value was 0.801; for GACTAA, 0.885.
GGTGAG gave a binding signal of 0.317.
Still for that read-out and setting: in the case of AGCGTT it was 0.916; in that of GAGATC, 0.422.
The sequence GTTGGA registered a binding signal of 0.495.
Same read-out and setting: for GAATCG the value was 0.599.
CGTGCG returned a binding signal of 0.61.
As for AGCGCA, the binding signal came to 0.818.
As for GATCAG, the binding signal came out at 0.685.
The same measure, in the same setting: in the case of TATCGG it was 0.797; in that of GCGCTG, 0.796; in that of CGTGCT, 0.832.
On the same count and under the same terms, in the case of TAGAGG it was 0.822; in that of AGACGC, 0.649; in that of GGGGTG, 0.607.
The sequence TCGTAG displayed a binding signal of 0.796.
On the same count and under the same terms, in the case of GTACGG it was 0.868; in that of GGGTCT, 0.884.
The same measure, in the same setting: in the case of CGCGTG it was 0.675.
